# Data: PubChem BioAssay AID504834 (National Center for Advancing Translational Sciences (NCATS), 2011)
# The campaign covered roughly 320,000 compounds. About 22,000 (6.9%) were called active. This list was built around the results that the source calls inconclusive (neither active nor inactive); the mix of calls is not that of the screen. Calls follow the shape of the dose curve; as a rule, active = well fitted inhibition curve with a large enough effect; inconclusive = small, poorly fitted or top-dose-only effect, or another doubt; inactive = no such curve, though single readings can be large or run the other way. Where the call is inconclusive, the potency comes from a doubtful curve fit.
# Experiment: Primary qHTS for delayed death inhibitors of the malarial parasite plastid, 96 hour incubation
# Conditions: P. falciparum luciferase reporter growth; series mostly up to 28.7 µM; activity change, negative = inhibition: at the top concentration
# How it was run: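 Cell-based qHTS: luciferase-tagged P. falciparum in erythrocytes (2% hematocrit, 0.05% parasitemia final) incubated with compounds for 96 hours, 37 C, 5% CO2; luciferase detection reagent then added and luminescence measured.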
# % is scaled to controls: 0 for no effect and ±100 for the full control effect; potency is read from the fitted curve at half-maximal effect.
Compound,"activity change, negative = inhibition",Potency
CCOC(=O)N1CCC(N2Cc3cccc(C(=O)NCc4ccccn4)c3C2=O)CC1,inactive: 15%,–
COc1ccc(NC(=O)c2cc(-c3cc(C)ccc3O)n[nH]2)cc1Cl,–,"inconclusive: 2.08 µM [inhibitor, full curve, poor fit]"
Cc1cc(C)c(NC(=O)CSc2nnc(CNC(=O)c3c(F)cccc3Cl)o2)c(C)c1,–,"inconclusive: 18.5 µM [inhibitor, single point]"
CN1CCN(C(CNC(=O)C(=O)Nc2ccc3c(c2)OCO3)c2ccc(F)cc2)CC1 (stereo unspecified),–,"inconclusive: 18.5 µM [inhibitor, single point]"
O=C(O)CNC(=O)c1ccc2c(c1)OCCO2,–,"inconclusive: 18.5 µM [inhibitor, single point]"
CCCN1CCC(NCc2cn(C)nc2-c2ccc(Oc3ccccc3)cc2)CC1,–,"inconclusive: 4.15 µM [inhibitor, partial curve, poor fit]"
COc1cc(OC)cc(C(=O)N2CCN(C3CCN(Cc4ccccc4)CC3)CC2)c1,–,"inconclusive: 18.5 µM [inhibitor, single point]"
CC(=O)c1ccc(OC(C)C)c(Cc2c(O)[nH]c(=S)[nH]c2=O)c1,–,"inconclusive: 18.5 µM [inhibitor, single point]"
CCOC(=O)C1CCN(c2cc(=O)n(-c3ccc(OC)cc3)c(=O)[nH]2)CC1,–,"inconclusive: 6.57 µM [inhibitor, partial curve, poor fit]"
CCn1c(SCC(=O)c2ccccc2)nnc1-c1cccnc1,inactive: -5.21%,–
O=C(NNC(=S)Nc1ccccc1)c1cccc(S(=O)(=O)N2CCOCC2)c1,–,"inconclusive: 10.4 µM [inhibitor, single point]"
Cn1c(SCC(=O)Nc2ccccc2F)nc2c(c1=O)SCC2,inactive: 0%,–
Cc1cc(C)c(C)c(S(=O)(=O)NCc2ccc(C(=O)N3CCCCC3)cc2)c1C,–,active: 0.415 µM
COc1ccc(/C=N/NC(=O)COc2ccc(Cl)cc2Cl)cc1Cn1nc(C)cc1C,inactive: 107%,–
COC(=O)Cn1c(=NC(=O)c2ccc(S(=O)(=O)N3CCc4ccccc4C3)cc2)sc2cc(OC)ccc21,–,"inconclusive: 18.5 µM [inhibitor, single point]"
COc1ccccc1CN1CCN(Cc2ccc3ccccc3c2)CC1,inactive: -17.5%,–
O=C(Nc1cc(C(F)(F)F)ccc1N1CCOCC1)C1CC1,–,"inconclusive: 10.4 µM [inhibitor, single point]"
O=C(c1ccc2c(c1)CCN2S(=O)(=O)c1ccccc1)N1CCN(c2ccc(F)cc2)CC1,–,"inconclusive: 8.28 µM [inhibitor, partial curve]"
O=C(Nn1cnc2ccccc2c1=O)c1ccc([N+](=O)[O-])cc1,inactive: 48.7%,–
CC1=C(C(=O)NC(C)c2ccccc2)C2(CCC(C)CC2)OC1=O (stereo unspecified),inactive: 5.7%,–
COc1ccc(S(=O)(=O)N2CCC(C(=O)Nc3ccc(S(=O)(=O)N4CCCC4)cc3)CC2)cc1OC,–,active: 4.65 µM
Nc1cccc(-c2cn3cccnc3n2)c1,–,"inconclusive: 10.4 µM [inhibitor, partial curve]"
O=C(NCC(c1cccs1)N1CCOCC1)c1ccccc1NS(=O)(=O)c1ccc(Cl)cc1 (stereo unspecified),–,"inconclusive: 13.1 µM [inhibitor, single point]"
COC(=O)c1c(NC(=O)c2ccc(C)o2)sc2c1CCCCC2,inactive: 49.4%,–

Compound,"activity change, negative = inhibition",Potency
CC(C)(C)OC(=O)N/N=C/c1cn(-c2ccccc2)nc1-c1cccnc1,–,active: 2.33 µM
CCCCOC(=O)Cn1cnc2ccc(Br)cc2c1=O,–,"inconclusive: 18.5 µM [inhibitor, single point]"
CC(C)(C)c1ccc(OCc2nc(-c3ccccn3)no2)c(Br)c1,inactive: 1.18%,–
COc1ccc(S(=O)(=O)N2CCCC2c2cccs2)cc1 (stereo unspecified),–,"inconclusive: 0.522 µM [inhibitor, partial curve, poor fit]"
CN(C(=O)CSc1nc2cc([N+](=O)[O-])ccc2n1-c1ccc(F)cc1)C1CCS(=O)(=O)C1 (stereo unspecified),–,"inconclusive: 10.4 µM [inhibitor, single point]"
CC1CCCCC1NS(=O)(=O)c1ccc(S(=O)(=O)N2CCCC2)cc1 (stereo unspecified),–,"inconclusive: 2.62 µM [inhibitor, single point]"
CCCCN(CC)CCNC(=O)Cn1cnc2sc(C)c(S(=O)(=O)N3CCOCC3)c2c1=O,–,"inconclusive: 18.5 µM [inhibitor, single point]"
C/C(Cn1nnc2ccccc21)=N/OC(=O)c1c(F)cccc1F,inactive: 21.2%,–
COc1ccccc1NS(=O)(=O)c1ccc(NN=C2CCCCC2)c([N+](=O)[O-])c1,–,"inconclusive: 18.5 µM [inhibitor, single point]"
COc1ccc(NC(=O)C(c2ccc(Cl)cc2)C(C)C)cn1 (stereo unspecified),–,"inconclusive: 1.04 µM [inhibitor, full curve]"
Cc1c(C2=CCN(S(=O)(=O)c3ccc(Cl)cc3)CC2)c2ccccc2n1C,–,"inconclusive: 11.7 µM [inhibitor, single point]"
CN(C)S(=O)(=O)c1ccc2c(c1)C(=NNC(N)=O)c1cc(S(=O)(=O)N(C)C)ccc1-2,inactive: 33.9%,–
CN(CC1CCCO1)S(=O)(=O)c1ccc(C(=O)Nc2ccc([N+](=O)[O-])cc2)cc1 (stereo unspecified),–,"inconclusive: 0.37 µM [inhibitor, full curve, poor fit]"
CC(C)Nc1nc(-c2ccccn2)nc(-c2ccccc2)c1C#N,–,"inconclusive: 1.47 µM [inhibitor, partial curve]"
O=C(NC1CCN(S(=O)(=O)c2ccccc2)CC1)c1cccc(F)c1,–,"inconclusive: 5.86 µM [inhibitor, partial curve, poor fit]"
Cc1cc(NC(=O)Nc2ccc(Cl)cc2)no1,–,"inconclusive: 18.5 µM [inhibitor, single point]"
Cc1c2ccncc2c(C)c2c1[nH]c1ccccc12,–,active: 1.04 µM
CC[C@@]1(O)C(=O)OCc2c1cc1n(c2=O)Cc2cc3c(NC(=O)CN)cccc3nc2-1,–,active: 7.38 µM
C[C@H](NC(=O)c1[nH]cnc1C(=O)Nc1ccc(Cl)cc1)c1ccccc1,–,"inconclusive: 16.5 µM [inhibitor, single point]"
CN(C)c1ccc(N2C(=O)CC(Nc3ccc(N4CCOCC4)cc3)C2=O)cc1 (stereo unspecified),inactive: -17.5%,–
Cc1noc(C)c1C(=O)NCc1ccccc1Br,–,"inconclusive: 0.0029 µM [inhibitor, full curve, poor fit]"
CCOc1ccc2oc(C(=O)N(C)CCc3ccc(OC)c(OC)c3)c(C)c2c1,–,"inconclusive: 10.4 µM [inhibitor, partial curve]"
Cc1ccc(S(=O)(=O)N2CCCC2C(=O)Nc2ccc(O)cc2)cc1 (stereo unspecified),–,active: 5.22 µM
C=CCN(c1ccc(C(=O)Nc2ccc(C)cc2)cc1)S(C)(=O)=O,inactive: 116%,–

# Pulled by structure from the list above, 2 records:
Compound,"activity change, negative = inhibition",Potency
CC(C)Nc1nc(-c2ccccn2)nc(-c2ccccc2)c1C#N,–,"inconclusive: 1.47 µM [inhibitor, partial curve]"
CCCCOC(=O)Cn1cnc2ccc(Br)cc2c1=O,–,"inconclusive: 18.5 µM [inhibitor, single point]"

# The results go on:

Compound,"activity change, negative = inhibition",Potency
Cc1cc(N2CCN(Cc3nc(-c4ccc(Cl)cc4)oc3C)CC2)cc(C)n1,–,"inconclusive: 16.5 µM [inhibitor, single point]"
CNC(=S)NC1CC2CCC(C1)N2Cc1ccccc1 (stereo unspecified),inactive: 174%,–
COc1ccc(Cc2nnc(SCc3c(C)noc3C)n2C2CCCCC2)cc1OC,–,"inconclusive: 9.28 µM [inhibitor, partial curve]"
O=Cc1cn(CC(O)Cn2cc(C=O)c3ccccc32)c2ccccc12,–,"inconclusive: 2.08 µM [inhibitor, partial curve, poor fit]"
O=C(CNC(=O)c1cc(Cl)cc([N+](=O)[O-])c1)OCC(=O)N1CCCCC1,inactive: -0.806%,–
COc1cccc(CC(=O)Nc2ncc(C)s2)c1,inactive: -6.92%,–
O=C1CCCC2=C1C(c1ccc(Cl)cc1)C1C(=O)c3ccccc3C1=N2 (stereo unspecified),–,"inconclusive: 13.1 µM [inhibitor, single point]"
Cc1cc(NC(=O)CSc2nnnn2C2CCCC2)no1,–,active: 7.38 µM
CC1=C(C(=O)NC2CCCc3c2cnn3-c2cccc(C)c2C)OCCO1 (stereo unspecified),inactive: 29.9%,–
COCCNC(=O)c1cccc(OC2CCN(Cc3ccc(F)cc3OC)CC2)c1,inactive: 70.8%,–
CCOC(=O)C1=C(C)N=C2SC(CC)C(=O)N2C1c1cccc(F)c1 (stereo unspecified),–,active: 10.4 µM
CCC(C)C(NC(=O)c1ccccc1)C(=O)Nc1ccc(S(=O)(=O)Nc2cc(C)nc(C)n2)cc1 (stereo unspecified),–,"inconclusive: 1.65 µM [inhibitor, full curve, poor fit]"
CCc1cc2c(=O)n(-c3ccc(C)cc3)cnc2s1,–,"inconclusive: 13.1 µM [inhibitor, single point]"
COc1ccc(C2/C=C\CN(C(=O)NC34CC5CC(CC(C5)C3)C4)CC(=O)N2Cc2ccc(F)cc2)cc1 (stereo unspecified),–,"inconclusive: 14.7 µM [inhibitor, single point]"
COC(=O)CCCCCN1C(=O)NC(c2ccc(-c3ccccc3)cc2)C(C(=O)OCc2ccccc2)=C1C (stereo unspecified),–,"inconclusive: 13.1 µM [inhibitor, single point]"
CCC(Cc1ccccc1)NC(=O)c1ccc2nc(N3CCOCC3)sc2c1 (stereo unspecified),inactive: 4.42%,–
CC[N+](C)(CC)CC(=O)OCC1C(C)C=C(C)CC1C (stereo unspecified),–,"inconclusive: 8.28 µM [inhibitor, partial curve]"
COc1ccccc1C(=O)NCCC(=O)Nc1ncccc1O,inactive: 0%,–
Cc1csc(Nc2nc(N)c(C(=O)Nc3ccccc3)o2)n1,–,active: 3.29 µM
Cc1cc(=O)[nH]c(SCCCOc2ccccc2Cl)n1,–,"inconclusive: 18.5 µM [inhibitor, single point]"
Cc1cccc(CN2CCC(C(=O)Nc3cccc(-c4cccc(F)c4)c3)CC2)n1,–,"inconclusive: 18.5 µM [inhibitor, single point]"
CC(C)(C)c1ccc(C(=O)Nc2cccc(C(=O)N3CCOCC3)c2)cc1,inactive: -37.6%,–
Cc1c(NS(=O)(=O)c2ccccc2F)c(=O)n(-c2ccccc2)n1C,inactive: 13%,–

# Single entries from the entries so far.
# In Potency, `CC[N+](C)(CC)CC(=O)OCC1C(C)C=C(C)CC1C` (stereo unspecified) has the entry inconclusive: 8.28 µM [inhibitor, partial curve]
# In Potency, `CCC(C)C(NC(=O)c1ccccc1)C(=O)Nc1ccc(S(=O)(=O)Nc2cc(C)nc(C)n2)cc1` (stereo unspecified) has the entry inconclusive: 1.65 µM [inhibitor, full curve, poor fit]
# In Potency, `Cc1cc(N2CCN(Cc3nc(-c4ccc(Cl)cc4)oc3C)CC2)cc(C)n1` has the entry inconclusive: 16.5 µM [inhibitor, single point]
